# Data as given in patent publication US5880256A, “Factor VIIa inhibitors from Kunitz domain proteins” (Genentech, Inc., priority 1995, dated 1999).
# At least one peptide structure holds a part that was inferred or is arguable (an end, a ring closure or a residue). Positions of bridges follow the written chain, without caps; N, C: chain ends. No end group written: not given here.
# What was measured:
# normal human plasma [1] = assay: Prothrombin time (PT) assay, clotting initiated by TF membranes; format: biochemical; settings: 40 μM inhibitor, uninhibited clotting time 30 s
# normal human plasma [2] = assay: Activated partial thromboplastin time (APTT) assay, initiated by ellagic acid; format: biochemical; settings: 40 μM inhibitor, uninhibited clotting time 31 s
# Description: For the activated partial thromboplastin time (APTT) assays, the activation time was set at 120 sec and acquisition time at 300 to 600 sec depending on the expected outcome of the assay. Citrated normal human plasma and inhibitor were incubated together. The sample (plasma and inhibitor) and activator (Instrumentation Laboratories Ellagic acid/Phospholipid mix Test Reagent) were automatically pipetted and incubated together for 2 min at 37° C., then CaCl2 was added and clotting time determined by means of optical assessment. The total incubation time of inhibitor with plasma was ca. 3 min before addition of activator, and 5 min before addition of CaCl2.
# [3] = system: New Zealand white rabbits; assay: Rabbit deep medial injury model (carotid artery patency, thrombus weight); format: in vivo
# Description: Male New Zealand white rabbits (~4 kg) were anesthetized to surgical anesthesia plane with an IM injection of Ketamine / Xylaxine. The rabbits were placed supine on a restraining board, warmed to 37° C., and the neck and inner thigh area shaved. Teflon catheters were replaced in a marginal ear vein and femoral artery for drug delivery and sample collection respectively. Prior to treatment, blood samples were collected for coagulation tests (APTT and PT). Bleeding time was assessed from a cut made in the cuticle portion of a hind limb nail. Incisions were made in the neck region and the entire left common carotid artery and its branches were surgically isolated. An ultrasonic flow probe (Transonics®) was placed on the common carotid approximately 5 cm caudal to the common--internal bifurcation. After blood flow reached a stable baseline, drugs (saline or test compounds) were delivered via the marginal ear vein. A deflated embolectomy catheter (Fogarty®, 3F) was then introduced into the lumen of the common via an incision in the lingual branch. Blood flow through the artery was stopped briefly while the catheter was introduced and loosely secured with 2-0 silk tie at the incision site. After the catheter was in place and secure, blood flow was restored. The deflated balloon was advanced to within 2 mm of the flow probe and inflated with saline until resistance of the vessel wall was felt. The catheter was pulled back with a steady motion to the first branch and then deflated. […] Over 40 minutes, blood samples were taken for APTT and PT measurements, cuticle bleeding times were assessed and blood flow through the carotid monitored. Duration of patency was defined as the total amount of time (maximum=40 minutes) that any measurable blood flow is detected in the artery. […] If any thrombus was present, it was removed, blotted and the weight recorded.
# [Heparin was dosed as a 25 u/kg bolus followed by a continuous infusion of 1) 0.5 u/kg/min or 2) 1 u/kg/min. […] With the exception of the patency data, values are expressed as means ±sem.]
sequence,measurement,setting,value
"VREVCSEQAEPGPCRAMMKRWYFDVTEGKCAPFIYGGCYGNRNNFDTEEYCAAVCGSA (disulfide 5-55, 14-38, 30-51) [IV-49C]","PT clotting time, fold prolongation",normal human plasma [1],2.5 fold
same,"APTT clotting time, fold prolongation",normal human plasma [2],2.0 fold
same,patency and clot size compared to the saline control (in words),[3]; rabbit deep medial injury model,significantly prolonged patency and reduced clot size
same,Patency (%),"[3]; rabbit, 2 mg/kg IV bolus, animals with carotid blood flow ≥5 minutes",83%
same,Patency Duration,"[3]; rabbit, 2 mg/kg IV bolus, maximum 40 minutes, mean ± sem",33.3 ± 6.7 min
